## Percent effect of library compounds

Measurements from “University of Dundee, Small-Polar-MMV Screening Library” (2021), ChEMBL document CHEMBL3988442.

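Whole-parasite assay of Trypanosoma brucei over 72 hours; the read-out is not stated. Concentration: 30 µM. The record gives no direction; compounds that gave an IC50 in retests scored well above the rest, so higher reads as stronger inhibition. Values scatter widely below zero; nearly all retest evidence comes from the higher of the two concentrations used. Of about 64,000 compounds tested this way, about 940 (1.5%) reached 50% or more in at least one test.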

Results are given as percent effect.
The controls that fix the scale are not given in the record; negative values are as filed.
The compounds are a random part of those screened.

Cc1nc(CN2CCN(c3ccc(SC(C)C)nn3)CC2)cs1 read -46.17%. With O=C(O)C(F)(F)F.O=C(O)C(F)(F)F.O=C(O)C(F)(F)F.[H][C@@]12CN(Cc3cccnc3)C[C@]1([H])OCCN2c1ccc(C)nn1 the screen gave 16.92%. CCN(CC)C(CNCc1cc(F)cc(F)c1)c1ccco1 (stereo unspecified) read -15.15%. For O=C(NCCO)c1cc(-c2ccc3c(c2)CCO3)n[nH]1 the result was -11.93%. COc1cccc(C2(CNC(C)c3nnc(C)o3)CCCC2)c1 (stereo unspecified) gave -15.21%. Cc1cc(S(=O)(=O)Nc2onc(C)c2C)c(C)s1 gave -11.13%.

COc1ccc(SC(C)C(=O)N2CCC(C(=O)N3CCCC3)CC2)cc1 (stereo unspecified) read -33.93%. Result for CN(Cc1ccc(F)cc1C#N)CC(F)(F)F was -7.563%. Cc1c(CNC(=O)C2CCCCCN2C)oc2ccccc12 (stereo unspecified) gave -13.13%. CC(C)N1CCC(Cc2cc(-c3cccc(C(=O)O)c3)ncn2)C1 (stereo unspecified) read 7.288%. COc1ccccc1-c1ncc(CN2CCC3(CCN(C)C3)CC2)cn1 gave 11.58%. Result for O=C(c1ccccc1N1CCOCC1)N1CCCC(n2cccn2)C1 (stereo unspecified) was 13.9%.

Result for COCCO[C@H]1CCN(c2cc(OC)ncn2)[C@H]1Cc1cnn(C)c1 was -96.78%. CC(C)N1CCC(NC(=O)c2cn(-c3ccc(F)cc3)nn2)C1 (stereo unspecified) gave -28.67%. For [H][C@]12CN(C(=O)c3cccn3C)CC[C@@]1(O)CCN(S(C)(=O)=O)C2 the result was -52.36%. Result for CN1C(=O)C2(CCN(S(C)(=O)=O)CC2)c2cc(F)ccc21.Cl was -10.63%. With CCN(Cc1ccc(C#N)cc1F)C(=O)CN(C)CC(N)=O the screen gave 7.274%. With O=C(O)C(=O)O.c1cnc(-c2noc(C3CN(Cc4ccc5c(c4)CCO5)C3)n2)nc1 the screen gave 7.497%.

For CC(C)OCCC(=O)NCCC(=O)N1CCN(c2ccccn2)CC1 the result was -10.08%. With CCC(CNS(=O)(=O)c1c[nH]cn1)Oc1ccccc1F (stereo unspecified) the screen gave 4.78%. Cc1ccc(C(=O)N[C@H]2CN(CCO)C[C@@H]2C2CC2)cc1Cl read 10.83%. Cc1nc(C(=O)N2CCCC(c3ccc4sc(N)nc4n3)C2)co1 (stereo unspecified) read -6.496%. CCOCc1nn(CC2CC2)c2c1CN(Cc1cccs1)CC2.O=C(O)C(F)(F)F.O=C(O)C(F)(F)F gave -93.5%. With CN(C)c1cc(C2CCN(C(=O)c3cnn(C)c3)CC2)ccn1 the screen gave -18.96%.

With CCOC(=O)c1ccccc1NC(=O)CN(C)Cc1ccccc1Cl.O=C(O)C(=O)O the screen gave 103.8%. With Cc1cccc(-c2nc(CNC3CCc4ncnn4C3)no2)c1 (stereo unspecified) the screen gave -9.255%. Result for CC(C#N)NS(=O)(=O)c1ccc2c(c1)N(C)CCC2 (stereo unspecified) was -17.08%. Result for NC(=O)c1cccc(CCNCc2cccs2)c1 was -8.348%. Result for Cn1cc(CN2CC3(CCN(Cc4ccsc4)C3)C2)cn1 was -3.743%. CN1CCC(c2nnc3n2CCN(S(=O)(=O)c2ccccc2Cl)C3)CC1 gave 1.319%.

Result for OC(CNCCn1cccn1)COc1cccc(C(F)(F)F)c1 (stereo unspecified) was 27.03%. With [H][C@@]12CC(=O)N(C)[C@@]1([H])CCN2S(=O)(=O)Cc1ccccc1 the screen gave -41.3%. CSCc1cccc(S(=O)(=O)NCCCO)c1 read -91.66%. With O=C(N1CCCC(n2cncn2)C1)C1(c2cccc(F)c2)CCCC1 (stereo unspecified) the screen gave -7.948%.

The first 2 entries again:

| structure | effect |
|---|---|
| `Cc1nc(CN2CCN(c3ccc(SC(C)C)nn3)CC2)cs1` | -46.17% |
| `O=C(O)C(F)(F)F.O=C(O)C(F)(F)F.O=C(O)C(F)(F)F.[H][C@@]12CN(Cc3cccnc3)C[C@]1([H])OCCN2c1ccc(C)nn1` | 16.92% |